Test results from US20190038704A1.
Results are given in words; binding and its absence hold for the method and conditions named. Some results given as binding are weak or reduced against the parent protein; the word gives no strength.

Chains of the proteins cited; added tags and fusions are not shown. Lines headed by an entry give the natural chain unless they say otherwise; changes in a name come on top.
UniProt Q03137: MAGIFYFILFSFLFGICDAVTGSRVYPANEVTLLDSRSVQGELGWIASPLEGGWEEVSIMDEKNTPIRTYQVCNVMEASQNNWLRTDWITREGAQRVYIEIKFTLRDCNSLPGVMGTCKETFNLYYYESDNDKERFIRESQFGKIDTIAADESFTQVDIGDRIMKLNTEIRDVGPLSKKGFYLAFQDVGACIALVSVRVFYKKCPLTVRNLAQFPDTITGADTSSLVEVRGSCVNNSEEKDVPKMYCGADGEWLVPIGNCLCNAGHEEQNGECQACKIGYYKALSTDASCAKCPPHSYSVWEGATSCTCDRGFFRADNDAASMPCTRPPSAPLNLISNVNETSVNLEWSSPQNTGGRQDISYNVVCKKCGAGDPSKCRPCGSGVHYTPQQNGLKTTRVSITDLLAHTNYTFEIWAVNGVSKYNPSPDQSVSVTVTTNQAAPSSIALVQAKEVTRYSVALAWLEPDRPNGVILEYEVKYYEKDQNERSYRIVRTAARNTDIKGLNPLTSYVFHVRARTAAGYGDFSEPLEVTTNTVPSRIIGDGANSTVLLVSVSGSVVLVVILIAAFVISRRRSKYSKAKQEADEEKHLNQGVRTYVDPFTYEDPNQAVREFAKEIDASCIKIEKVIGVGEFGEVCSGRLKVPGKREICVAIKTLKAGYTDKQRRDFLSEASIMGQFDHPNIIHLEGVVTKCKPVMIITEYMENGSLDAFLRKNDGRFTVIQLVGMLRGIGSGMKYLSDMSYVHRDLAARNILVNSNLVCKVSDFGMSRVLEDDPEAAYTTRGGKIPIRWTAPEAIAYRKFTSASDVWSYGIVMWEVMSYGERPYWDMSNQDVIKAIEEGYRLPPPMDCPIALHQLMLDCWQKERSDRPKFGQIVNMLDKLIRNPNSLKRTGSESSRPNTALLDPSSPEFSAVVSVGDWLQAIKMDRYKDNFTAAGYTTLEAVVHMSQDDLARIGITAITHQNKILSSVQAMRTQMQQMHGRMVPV

Each binder was assayed against mouse EphA4 ectodomain fused to Fc (mouse) (UniProt Q03137) (assay: phage ELISA on immobilized EphA4 Fc; clone 3-7 marked 'Not from panning' in Table 5).

Row | Binder | binding
1 | APYCVYKGSWNC [phage clone 3-7 …] | binds

The binders below were run against mouse EphA4 ectodomain fused to Fc (mouse) (UniProt Q03137) (assay: phage ELISA on immobilized EphA4 Fc; clone 3-14 marked 'Not from panning' in Table 5).

Row | Binder | binding
2 | APYCVYGGLWTC [phage clone 3-14 …] | binds

The binders below were run against mouse EphA4 ectodomain fused to Fc (mouse) (UniProt Q03137) (assay: phage ELISA on immobilized EphA4 Fc; clone 3-8 marked 'Not from panning' in Table 5).

Row | Binder | binding
3 | APYCVYEGLWNC [phage clone 3-8 …] | binds

What follows are binders tested against mouse EphA4 ectodomain fused to Fc (mouse) (UniProt Q03137) (assay: phage ELISA on immobilized EphA4 Fc; clone 3-13 marked 'Not from panning' in Table 5).

Row | Binder | binding
4 | APYCVYQGLWEC [phage clone 3-13 …] | binds

What follows are binders tested against mouse EphA4 ectodomain fused to Fc (mouse) (UniProt Q03137) (assay: phage ELISA on immobilized EphA4 Fc with KYL as competitor).

Row | Binder | binding
5 | KYLPYWPVLSSL [KYL peptide …] | binds

The binders below were run against mouse EphA4 ectodomain fused to Fc (mouse) (UniProt Q03137) (assay: phage ELISA on immobilized EphA4 Fc; clone 3-15 marked 'Not from panning' in Table 5).

Row | Binder | binding
6 | APYCVYAGKWSC [phage clone 3-15 …] | binds

Each binder was assayed against mouse EphA4 ectodomain fused to Fc (mouse) (UniProt Q03137) (assay: phage ELISA on immobilized EphA4 Fc; grade = KYL concentration needed to inhibit phage-EphA4 binding).

Row | Binder | binding
7 | APYCVWRGSWSC [phage clone 1-1 …] | binds
8 | APVCVWRGSWSC [phage clone 1-2 …] | binds
9 | APLCVWRGSWSC [phage clone 1-3 …] | binds
10 | APLCVYRGSWSC [phage clone 1-4 …] | binds
11 | APICVYRGSWSC [phage clone 1-5 …] | binds
12 | APWCVFRGSWSC [phage clone 1-6 …] | binds
13 | APHCVFRGSWSC [phage clone 1-7 …] | binds
14 | APYCSYYGQWMC [phage clone 2-1 …] | binds
15 | APFCLYTGDWVC [phage clone 2-2 …] | binds
16 | APFCSWAGWWTC [phage clone 2-3 …] | binds
17 | APYCVYTGEWLC [phage clone 3-1 …] | binds
18 | APYCVYDGTWIC [phage clone 3-2 …] | binds
19 | APYCVYGGTWRC [phage clone 3-3 …] | binds
20 | APYCVYSGTWHC [phage clone 3-4 …] | binds
21 | APYCVYNGTWNC [phage clone 3-5 …] | binds
22 | APYCVYDGSWNC [phage clone 3-6 …] | binds
23 | APYCVYSGVWNC [phage clone 3-9 …] | binds
24 | APYCVYSGWWKC [phage clone 3-10 …] | binds

Row | Binder | binding
25 | APYCVYSGRWEC [phage clone 3-11 …] | binds
26 | APYCVYRGVWEC [phage clone 3-12 …] | binds
27 | APYCVYGGLWTC [phage clone 3-14 …] | binds
28 | APYCVYQGYWKC [phage clone 3-16 …] | binds
29 | APYCVYNGRWDC [phage clone 3-17 …] | binds
30 | GPYCVYKGNWWC [phage clone 3-19 …] | binds
31 | EPYCVYRGSWSC [phage clone 4-2 …] | binds
32 | DAYCVYRGSWSC [phage clone 4-3 …] | binds
33 | AAFCVYRGSWSC [phage clone 4-4 …] | binds
34 | APLCVYRGSWSC [phage clone 4-5 …] | binds
35 | LPLCVYRGSWSC [phage clone 4-6 …] | binds
36 | GPLCVYRGSWSC [phage clone 4-7 …] | binds
37 | SALCVYRGSWSC [phage clone 4-8 …] | binds
38 | QALCVYRGSWSC [phage clone 4-9 …] | binds
39 | FPVCVYRGSWSC [phage clone 4-10 …] | binds
40 | LPVCVYRGSWSC [phage clone 4-11 …] | binds
41 | YPMCVYRGSWSC [phage clone 4-12 …] | binds

The binders below were run against mouse EphA4 ectodomain fused to Fc (mouse) (UniProt Q03137) (assay: phage ELISA on immobilized EphA4 Fc; clone 3-18 marked 'Not from panning' in Table 5).

Row | Binder | binding
42 | APYCVYRGHWGC [phage clone 3-18 …] | binds

Each binder was assayed against mouse EphA4 ectodomain fused to Fc (mouse) (UniProt Q03137) (assay: phage ELISA on immobilized EphA4 Fc; clone 3-19 marked 'Not from panning' in Table 5).

Row | Binder | binding
43 | GPYCVYKGNWWC [phage clone 3-19 …] | binds
